Results from patent publication US20080044413A1.
Results are given in words; binding and its absence hold for the method and conditions named. Some results given as binding are weak or reduced against the parent protein; the word gives no strength.

By UniProt entry, the sequences of proteins in these tests, tags left out. Where a name states a change or a piece, a line headed by the entry shows the natural chain unless it says otherwise. Residues count along the entry.
UniProt P29317: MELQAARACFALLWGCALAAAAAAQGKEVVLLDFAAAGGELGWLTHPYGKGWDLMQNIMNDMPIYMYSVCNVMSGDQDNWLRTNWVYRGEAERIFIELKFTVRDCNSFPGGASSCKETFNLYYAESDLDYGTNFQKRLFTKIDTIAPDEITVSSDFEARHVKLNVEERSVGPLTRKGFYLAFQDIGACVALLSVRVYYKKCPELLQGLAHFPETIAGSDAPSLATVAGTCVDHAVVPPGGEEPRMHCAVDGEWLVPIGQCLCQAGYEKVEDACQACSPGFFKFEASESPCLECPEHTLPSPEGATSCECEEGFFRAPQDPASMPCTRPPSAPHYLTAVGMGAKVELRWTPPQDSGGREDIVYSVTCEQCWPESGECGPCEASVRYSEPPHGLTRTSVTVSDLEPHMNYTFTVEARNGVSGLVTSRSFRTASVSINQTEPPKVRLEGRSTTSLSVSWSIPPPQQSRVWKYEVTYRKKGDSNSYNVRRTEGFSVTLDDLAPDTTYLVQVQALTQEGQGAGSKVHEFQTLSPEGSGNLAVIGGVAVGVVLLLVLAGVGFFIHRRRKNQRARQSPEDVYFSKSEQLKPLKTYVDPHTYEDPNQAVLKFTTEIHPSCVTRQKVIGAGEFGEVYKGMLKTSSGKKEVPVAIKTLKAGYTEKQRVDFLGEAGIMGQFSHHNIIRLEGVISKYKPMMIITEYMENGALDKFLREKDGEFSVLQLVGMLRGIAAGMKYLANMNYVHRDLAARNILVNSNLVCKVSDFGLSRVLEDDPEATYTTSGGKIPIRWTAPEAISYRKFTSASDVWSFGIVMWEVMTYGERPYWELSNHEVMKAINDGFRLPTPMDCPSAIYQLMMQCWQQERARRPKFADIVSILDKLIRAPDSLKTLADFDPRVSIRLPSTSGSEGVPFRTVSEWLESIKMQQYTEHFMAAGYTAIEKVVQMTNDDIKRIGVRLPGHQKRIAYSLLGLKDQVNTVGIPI
human EphA2: residues 24-976 of P29317
Human EphA2-Fc fusion protein: residues 24-537 of P29317

Columns and labels:
[1] = molecular target: Human EphA2-Fc fusion protein (human) (UniProt P29317); experiment: activity ELISA, scFv supernatants titrated on immobilized human EphA2 (EphA2-Fc coat), linear concentration axis
[2] = molecular target: human EphA2 (human) (UniProt P29317); experiment: immunofluorescence microscopy, MCF-10A and MDA-MB-231 monolayers (data not shown)
[3] = molecular target: Human EphA2-Fc fusion protein (human) (UniProt P29317); experiment: activity ELISA on coated human EphA2-Fc, normalised by quantification ELISA
[4] = molecular target: human EphA2 (human) (UniProt P29317); experiment: flow cytometry on A549 cells, antibody 10 µg/ml, PE anti-mouse Fc gamma; control: irrelevant antibody of the same isotype [A]
[5] = molecular target: human EphA2 (human) (UniProt P29317); experiment: immunofluorescence staining, MCF10A cells; at cell-cell contacts
[6] = molecular target: human EphA2 (human) (UniProt P29317); experiment: flow cytometry of live SW480 cells left after the cytotoxicity assay with T-cells; B233 10 µg/ml, APC anti-mouse IgG; the axis is the dose of EphA2-BiTE [B]
[7] = molecular target: human EphA2 (human) (UniProt P29317); experiment: flow cytometry, 10 µg/ml, A549 and MDA-MB-231 cells
[8] = molecular target: human EphA2 (human) (UniProt P29317); experiment: flow cytometry on MDA MB231 cells, antibody 10 µg/ml, PE anti-mouse Fc gamma; control: irrelevant antibody of the same isotype [B]
[9] = molecular target: human EphA2 (human) (UniProt P29317); experiment: immunofluorescence staining, MDA-MB-231 cells; at membrane ruffles

Measured: binding

B1: VH VL 2E7 scFv (scFv)
scFv: QVQLLESGGGLVQPGGSLRLSCAASGFTFSSYTMSWVRQAPGQALEWMGTISSRGTYTYYPDSVKGRFTISRDNAKNSLYLQMNSLRAEDTAVYYCAREAIFTHWGRGTLVTVSSGGGGSGGGGSGGGGSDIQLTQSPSSLSASVGDRVTITCKASQDINNYGSWYQQKPGQAPRLLIYRANRLVDGVPDRFSGSGYGTDFTLTINNIESEDAAYYFCLKYNRFPYTFGQGTKVEIK
binds: [1] | [2] | [3]

B2: anti-EphA2 monoclonal antibody B233 (antibody, V domains shown)
VH: EVKLVESGGGLVQPGGSLSLSCAASGFTFTDYSMNWVRQPPGKALEWLGFIRNKANDYTTEYSASVKGRFTISRDNSQSILYLQMNALRAEDSATYYCVRYPRYHAMDSWGQGTSVTVSS
VL: DIVLTQSPATLSVTPGDSVNLSCRASQSISNNLHWYQQKSHESPRLLIKYVFQSISGIPSRFSGSGSGTDFTLSINSVETEDFGMYFCQQSNSWPLTFGAGTKLELK
not listed: [1] | [2] | [3]
binds: all other assays above
